Measured values as given in publication PMC7819943, “Rice protein-binding microarrays: a tool to detect cis-acting elements near promoter regions in rice”.
Some of the results follow.

molecular target: T1, OsSMF1 (Oryza sativa, UniProt Q6ZLB0 1-436); assay: protein-binding microarray (RPBM); PBS, 2% BSA, 51.3 ng/ul salmon testes DNA, 50 uM zinc acetate, 200 nM TF, 25 C, 1 h; high values mean tight binding; conditions: protein: recombinant; tags: N-terminal polyhistidine and DsRed monomer fusion (pET32a); chain copies: 2; label: CyDye5-dUTP incorporated in the synthesized complementary strand; 3' TTTTT single-stranded linker to array surface; dsDNA, one strand shown
T1 sequence: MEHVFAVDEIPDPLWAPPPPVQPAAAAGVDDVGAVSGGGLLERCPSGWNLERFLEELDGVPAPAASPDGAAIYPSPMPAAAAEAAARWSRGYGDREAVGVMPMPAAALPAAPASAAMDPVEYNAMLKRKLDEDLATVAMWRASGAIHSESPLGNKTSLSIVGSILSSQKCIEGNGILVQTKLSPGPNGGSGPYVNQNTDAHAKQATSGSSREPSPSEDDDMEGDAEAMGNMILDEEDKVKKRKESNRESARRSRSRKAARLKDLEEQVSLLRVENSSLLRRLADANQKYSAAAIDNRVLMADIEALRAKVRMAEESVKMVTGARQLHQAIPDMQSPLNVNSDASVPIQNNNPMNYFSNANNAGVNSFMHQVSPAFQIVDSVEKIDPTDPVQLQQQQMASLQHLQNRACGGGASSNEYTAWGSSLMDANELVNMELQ
How it was run: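 Per-feature fluorescence intensity (arbitrary units), read on an Axon 4000B scanner, is the binding signal. Transcription factors carrying an N-terminal polyhistidine tag and DsRed fusion were expressed in E. coli BL21-CodonPlus and purified on Ni–NTA. A custom Agilent array, made double-stranded by primer extension with Cy5-dUTP and blocked with 2% BSA, was incubated with 200 nM protein in PBS, 2% BSA, salmon testes DNA and 50 µM zinc acetate at 25 °C for 1 h and then washed.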

Sequence | binding signal
CCCACCCGCGCTTCTTCGCCACCGCCTGACCTCCACCCTGCGGAGTCACCTAGTGCAG | 3210 fluorescence intensity (a.u.)
CTTGTCGTGTCGTGTCGTGTCCTCACGTGCCGTGCCGCCCCGGAGTCACCTAGTGCAG | 4600 fluorescence intensity (a.u.)
CGGCATTATATACTAAAGAAAATGGAGGGAGTAGGAATCACGGAGTCACCTAGTGCAG | 28700 fluorescence intensity (a.u.)
CACCCAACCTGCTGACTCATCATGTGGCACTAGCTTCTCTCGGAGTCACCTAGTGCAG | 16000 fluorescence intensity (a.u.)
GCTTTTCCGGTGCCGCCGTGCGCCGCAATTCCGCAAACACCGGAGTCACCTAGTGCAG | 3430 fluorescence intensity (a.u.)
ACGTCCACGAGTCCATGTCATGACACACCCCAAGTTGCTGCGGAGTCACCTAGTGCAG | 5510 fluorescence intensity (a.u.)
AGCCGAGTAGCAGTGACGCCCGCACTATTGGCCTGATCAGCGGAGTCACCTAGTGCAG | 3240 fluorescence intensity (a.u.)
ATAAAGTGGTTCTTTACACGTGTGACGATAAGACGTGAGTCGGAGTCACCTAGTGCAG | 6920 fluorescence intensity (a.u.)
CCGCTGTACTATACAAAGGATCGGACCAGGTAGCTGACTGCGGAGTCACCTAGTGCAG | 5890 fluorescence intensity (a.u.)
CCCCGTGGCGGTGGCGGAGGTGACGTCGTACTCCTGCTGCCGGAGTCACCTAGTGCAG | 8170 fluorescence intensity (a.u.)
CTGCCTGCTCCGCCCGCGTGCCCGTCTTGGCCCCGTCACTCGGAGTCACCTAGTGCAG | 4100 fluorescence intensity (a.u.)
CTTATACACGTTGTTTCATTCCCAAGTCATGCATGAATAACGGAGTCACCTAGTGCAG | 4530 fluorescence intensity (a.u.)
ATTTCTCGACGCAACGCGACACGACGTATACGTCACGACCCGGAGTCACCTAGTGCAG | 6900 fluorescence intensity (a.u.)
CCTAGCCCATCTCTCATCCAAGCTAAGTTTGACATGCCCGCGGAGTCACCTAGTGCAG | 3300 fluorescence intensity (a.u.)
CTAATATGGATAGATTGAAACATCAAGGACTAAACTGAGCCGGAGTCACCTAGTGCAG | 3460 fluorescence intensity (a.u.)
TCTATTCATCCAAATTATGACACATGTACGCTCCATATTTCGGAGTCACCTAGTGCAG | 3270 fluorescence intensity (a.u.)
TTTCGACATCGTCTGCCACGTCAGCTTGCCCCTCCATTAGCGGAGTCACCTAGTGCAG | 26500 fluorescence intensity (a.u.)
TTTAAATAACATGACGTGTAAAGGAAACATTGCACTAGTCCGGAGTCACCTAGTGCAG | 13300 fluorescence intensity (a.u.)
TCGCGTGTGGGAACATACTTCACCATTATCAACTTCCATGCGGAGTCACCTAGTGCAG | 3660 fluorescence intensity (a.u.)
GGCAGGCGCACGGCGAAGACCTCCGCCATGTGGCGAGTGTCGGAGTCACCTAGTGCAG | 3260 fluorescence intensity (a.u.)
TCAGGATGACTCGAAGTCGAATCCGCGTAATACGCTGGCGCGGAGTCACCTAGTGCAG | 3370 fluorescence intensity (a.u.)

Sequence | binding signal
TCCATTTGGATGTAGCATTTTAGTCACCAGCCATTTTAGTCGGAGTCACCTAGTGCAG | 3210 fluorescence intensity (a.u.)
GCCGGTTTCGCACAACCGCCGCGTAGGATCGTCGTGTGAACGGAGTCACCTAGTGCAG | 6090 fluorescence intensity (a.u.)
TCCATCCATCGCAGCCGGTTTGTCCTCTGAAAAGCACGCACGGAGTCACCTAGTGCAG | 25000 fluorescence intensity (a.u.)
CACCGCCGAACGCACGATTTCTTCCCGACGCTGTCACTTGCGGAGTCACCTAGTGCAG | 4340 fluorescence intensity (a.u.)
AACGATCCATCGCTGGCGGCGGCGGCGGTGGCGAAGACCGCGGAGTCACCTAGTGCAG | 3150 fluorescence intensity (a.u.)
CGGCGAAACCAAACGCAGCCACGCCGGCACGGCACGCGCGCGGAGTCACCTAGTGCAG | 13600 fluorescence intensity (a.u.)
CTTCTGATCAGATTCAGATTGCCAACACTGCAACCTTCTGCGGAGTCACCTAGTGCAG | 3410 fluorescence intensity (a.u.)
TGTGTGTATAAATCTATGACAGGTGGGACCAGACGTTAATCGGAGTCACCTAGTGCAG | 3300 fluorescence intensity (a.u.)
CCGATCCACCCAACCAACCAAGCGCCCGCCGGCCTCGTCGCGGAGTCACCTAGTGCAG | 11800 fluorescence intensity (a.u.)
GTTCGGGTTGAGCTCACGCTCCTCAGATTTAATGACGAACCGGAGTCACCTAGTGCAG | 36400 fluorescence intensity (a.u.)
CGCCGCCGCCGCCGCCCGCGCGCGCGCGAGATCTCGCCGGCGGAGTCACCTAGTGCAG | 3140 fluorescence intensity (a.u.)
AATGGCTGTTTGTTCCTTGATTGCCACGTCTCTTTCCATCCGGAGTCACCTAGTGCAG | 4360 fluorescence intensity (a.u.)
TGCCCTTGCTGCGGGTGCAGAACTCCATCTGCTCCGGCGGCGGAGTCACCTAGTGCAG | 3980 fluorescence intensity (a.u.)
GCTTGCGTGCGCATGGCGTCAGCGTGACCGCCGCCGGCCGCGGAGTCACCTAGTGCAG | 6520 fluorescence intensity (a.u.)
AATAATAATTCTTATCGATTTACGTGTCATCGCAATATTTCGGAGTCACCTAGTGCAG | 6340 fluorescence intensity (a.u.)
GGGATTGGCCACGTCCACGTGTGGATTCTTTGCGTGCATCCGGAGTCACCTAGTGCAG | 7680 fluorescence intensity (a.u.)
ACCACCACGTAATAACACCGTAAGATCAACTCTAAGCTTTCGGAGTCACCTAGTGCAG | 6470 fluorescence intensity (a.u.)
TTAATCGTTGTCACATGTCAGCATCGTTGGTCATGGAATTCGGAGTCACCTAGTGCAG | 5090 fluorescence intensity (a.u.)
TGCATCCGCCCAGTTGCCACGCGCCCCTTTTAACTAAGACCGGAGTCACCTAGTGCAG | 3760 fluorescence intensity (a.u.)
TCACCGAGAGCCAGCCGGGACGACGGTGGCCCAAGCCGGGCGGAGTCACCTAGTGCAG | 4300 fluorescence intensity (a.u.)
CCTTACATGAGCCTCCTGTCTGTGTCATCACCACCTCCTCCGGAGTCACCTAGTGCAG | 7820 fluorescence intensity (a.u.)

Looked up one by one from above, three records:
Sequence | binding signal
CGGCATTATATACTAAAGAAAATGGAGGGAGTAGGAATCACGGAGTCACCTAGTGCAG | 28700 fluorescence intensity (a.u.)
CTGCCTGCTCCGCCCGCGTGCCCGTCTTGGCCCCGTCACTCGGAGTCACCTAGTGCAG | 4100 fluorescence intensity (a.u.)
ACCACCACGTAATAACACCGTAAGATCAACTCTAAGCTTTCGGAGTCACCTAGTGCAG | 6470 fluorescence intensity (a.u.)
